Some entries share one result that the patent states for a list of compounds.
Biological target: HIF-1 (Homo sapiens, UniProt Q16665)
Experiment: HIF-1-mediated reporter gene assay in T47D cells (HRE-luciferase, hypoxia-induced HIF-1 activation)
Type: cell-based
Parameters: endogenous in cells; host or cells: T47D cells (American Type Culture Collection)
Method: The HIF-1-mediated reporter gene assay in T47D cells was performed according to a previous protocol with minor modification (Parhira, S. et al., Sci. Rep., 2014, 4, 4748). T47D cells (American Type Culture Collection) were cultured in DMEM medium (Invitrogen), supplemented with 10% (v/v) fetal serum (FBS) (Invitrogen), 100 U/mL penicillin, and 100 μg/mL streptomycin (Invitrogen) in a humidified atmosphere (5% CO2 and 95% air) at 37° C. Cells (5×10^6) were co-transfected with the HRE-luciferase (Addgene) and Renilla plasmids using Lipofectamine 2000 (Invitrogen) according to the manufacturer's protocol. The transfected cells were seeded in 96-well plates with a density of 5×10^4/well and cultured in DMEM with 10% FBS overnight. After addition of the test compounds with different concentrations, the cells were incubated for 1 h, and then exposed to hypoxic (2% O2/5% CO2/93% N2) or normoxic (5% CO2/95% air) conditions at 37° C. for 20 h. Then the cells were lysed, and luciferase assay was performed using a Dual-Luciferase® reporter assay (Promega) kit according to the instructions of the manufacturer. Luciferase activities of both HRE and Renilla were determined by a multimode reader (Infinite 200 PRO, Teacan). HIF-1 transcriptional activity was shown by the ratio of firefly/Renilla luciferase activity. IC50 values were determined from the dose-response curves using Prism software. […]

Chains of the proteins cited; added tags and fusions are not shown.
UniProt Q16665, whole entry: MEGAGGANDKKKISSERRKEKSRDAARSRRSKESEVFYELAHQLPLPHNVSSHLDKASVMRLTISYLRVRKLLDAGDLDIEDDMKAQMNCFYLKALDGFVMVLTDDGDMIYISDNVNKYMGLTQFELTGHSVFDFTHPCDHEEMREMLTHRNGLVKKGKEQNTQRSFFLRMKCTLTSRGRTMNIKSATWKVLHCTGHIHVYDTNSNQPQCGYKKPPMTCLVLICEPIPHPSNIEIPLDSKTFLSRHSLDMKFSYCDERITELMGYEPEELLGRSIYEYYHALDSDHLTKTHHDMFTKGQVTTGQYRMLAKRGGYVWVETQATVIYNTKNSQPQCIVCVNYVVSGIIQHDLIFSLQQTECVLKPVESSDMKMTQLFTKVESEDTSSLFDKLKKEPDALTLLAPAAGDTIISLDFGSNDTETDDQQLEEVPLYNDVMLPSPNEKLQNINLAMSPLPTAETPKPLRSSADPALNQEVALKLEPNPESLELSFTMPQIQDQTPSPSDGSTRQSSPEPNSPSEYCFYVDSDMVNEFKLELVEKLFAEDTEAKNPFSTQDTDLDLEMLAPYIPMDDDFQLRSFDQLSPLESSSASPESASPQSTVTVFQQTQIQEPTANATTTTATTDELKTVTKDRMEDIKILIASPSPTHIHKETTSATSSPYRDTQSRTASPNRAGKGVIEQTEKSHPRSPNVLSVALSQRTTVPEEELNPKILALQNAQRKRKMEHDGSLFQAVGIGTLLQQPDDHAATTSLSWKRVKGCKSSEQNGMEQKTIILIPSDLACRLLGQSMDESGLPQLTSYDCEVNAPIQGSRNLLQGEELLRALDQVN

| SMILES | fold loss/decrease in HIF-1 inhibitory activity versus counterpart without C-2 hydroxyl/methoxyl ((5) versus (14), 11, 19 versus (12), (20)) | fold increase in HIF-1 inhibitory activity versus 3-hydroxyl analogue (3-methylated (14) versus (13)) |
| --- | --- | --- |
| COc1cc2c3c(c4cc(O)c(OC)cc4c2cc1O)C(O)C1CCCN1C3 (centres unmarked) [compound 5, 2-hydroxyl tylophorinidine] | At least 2 fold |  |
| COc1ccc2c3c(c4cc(OC)c(O)cc4c2c1)CN1CCC[C@H]1[C@H]3O [compound 14, tylophorinidine] |  | At least 2 fold |
